Assay results as given in patent publication US20110207771A1, “N-(L-ALKYL-2-PHENYLETHYL)-CARBOXAMIDE DERIVATIVES AND USE THEREOF AS FUNGICIDES” (SYNGENTA CROP PROTECTION, INC., priority 2006, published 2011).
Some results were stated once for a whole list of compounds, not compound by compound.

Columns and labels:
Format in all cases: in vivo
Venturia inaequalis = assay: Example B-2: action against Venturia inaequalis / apple (scab on apple); details: 0.02% active ingredient, spray on apple seedlings cv. McIntosh, inoculated one day after application
Erysiphe graminis = assay: Example B-3: action against Erysiphe graminis / barley (powdery mildew on barley); details: 0.02% active ingredient, spray on barley plants cv. Express, inoculated one day after application, assessed after 6 days
Podosphaera leucotricha = assay: Example B-1: action against Podosphaera leucotricha / apple (powdery mildew on apple); details: 0.02% active ingredient, spray on apple seedlings cv. McIntosh, inoculated one day after application, assessed after 12 days
Botrytis cinerea [1] = assay: Example B-6: action against Botrytis cinerea / tomato (Botrytis on tomatoes); details: 0.02% active ingredient, spray on tomato plants cv. Roter Gnom, inoculated two days after application, assessed after 4 days
Uncinula necator = assay: Example B-9: action against Uncinula necator / grape (powdery mildew on grape); details: 0.02% active ingredient, spray on grape seedlings cv. Gutedel, inoculated one day after application, assessed after 7 days
Septoria tritici = assay: Example B-8: action against Septoria tritici / wheat (Septoria leaf spot on wheat); details: 0.02% active ingredient, spray on wheat plants cv. Riband, inoculated one day after application, assessed 18 days after inoculation
Botrytis cinerea [2] = assay: Example B-4: action against Botrytis cinerea / apple (Botrytis on apple fruits); details: 0.02% active ingredient, 30 μl droplets in holes of apple fruit cv. Golden Delicious, assessed after 7 days
Botrytis cinerea [3] = assay: Example B-5: action against Botrytis cinerea / grape (Botrytis on grapes); details: 0.02% active ingredient, spray on grape seedlings cv. Gutedel, inoculated two days after application, assessed after 4 days
Alternaria solani = assay: Example B-10: action against Alternaria solani / tomato (early blight on tomatoes); details: 0.02% active ingredient, spray on tomato plants cv. Roter Gnom, inoculated two days after application, assessed after 3 days
Pyrenophora teres = assay: Example B-7: action against Pyrenophora teres / barley (net blotch on barley); details: 0.02% active ingredient, spray on barley plants cv. Express, inoculated two days after application, assessed 4 days after inoculation

Measured: infestation

CCCC(Cc1ccc(Cl)cc1Cl)NC(=O)c1sc(C)nc1C(F)(F)F (racemic) [Compound 3.199]
< 20%: all assays above

CC(Cc1ccc(Cl)cc1F)NC(=O)c1cn(C)nc1C(F)F (racemic) [Compound 1.275]
< 20%: all assays above

CC(CNC(=O)c1cn(C)nc1C(F)F)c1ccc(Cl)cc1Cl (racemic) [Compound 1.202]
< 20%: all assays above

CCC(Cc1ccc(Cl)cc1Cl)NC(=O)c1sc(C)nc1C(F)(F)F (racemic) [Compound 3.198]
< 20%: all assays above

Cn1cc(C(=O)NCCc2ccc(Cl)cc2)c(C(F)F)n1 [Compound 1.001, 3-difluoromethyl-1-methyl-1H-pyrazole-4-carboxylic acid [2-(4-chlorophenyl)-ethyl]-amide]
< 20%: all assays above

CCC(Cc1ccc(Cl)cc1Cl)NC(=O)c1cn(C)nc1C(F)(F)F (racemic) [Compound 2.198]
< 20%: all assays above

Cn1cc(C(=O)NCC(F)c2ccc(Cl)cc2Cl)c(C(F)(F)F)n1 (racemic) [Compound 2.206]
< 20%: all assays above

Cn1cc(C(=O)NCC(F)c2ccc(Cl)cc2Cl)c(C(F)F)n1 (centres unmarked) [Compound 1.206, 3-difluoromethyl-1-methyl-1H-pyrazole-4-carboxylic acid [2-(2,4-dichlorophenyl)-2-fluoro-ethyl]amide]
< 20%: all assays above

CC(NC(=O)c1cn(C)nc1C(F)F)C(F)c1ccc(Cl)cc1Cl (centres unmarked) [Compound 1.216, 3-difluoromethyl-1-methyl-1H-pyrazole-4-carboxylic acid [2-(2,4-dichlorophenyl)-2-fluoro-1-methyl-ethyl]amide]
< 20%: all assays above

CCCC(CNC(=O)c1cn(C)nc1C(F)F)c1ccc(Cl)cc1Cl (racemic) [Compound 1.204]
< 20%: all assays above

CC(Cc1ccc(Br)cc1Cl)NC(=O)c1cn(C)nc1C(F)F (centres unmarked) [Compound 1.451, 3-difluoromethyl-1-methyl-1H-pyrazole-4-carboxylic acid [2-(4-bromo-2-chlorophenyl)-1-methyl-ethyl]-amide]
< 20%: all assays above

CCCC(Cc1ccc(Cl)cc1Cl)NC(=O)c1cn(C)nc1C(F)F (racemic) [Compound 1.199]
< 20%: all assays above

Cn1cc(C(=O)NC(C)(C)Cc2ccc(Cl)cc2Cl)c(C(F)F)n1 [Compound 1.207]
< 20%: all assays above

CC(Cc1ccc(-c2ccc(C(F)(F)F)cc2)cc1Cl)NC(=O)c1cn(C)nc1C(F)F (racemic) [Compound 1.463]
< 20%: all assays above

CC(Cc1ccc(Cl)cc1Cl)NC(=O)c1cn(C)cc1C(F)(F)F (racemic) [Compound 5.197]
< 20%: all assays above

Cn1cc(C(=O)NCCc2ccc(Cl)c(Cl)c2)c(C(F)(F)F)n1 [Compound 2.235]
< 20%: all assays above

CC(Cc1ccc(Cl)cc1Cl)NC(=O)c1cn(C)nc1C(F)(F)F (racemic) [Compound 2.197]
< 20%: all assays above

Cc1cccc(Cl)c1CC(C)NC(=O)c1cn(C)nc1C(F)F (racemic) [Compound 1.443]
< 20%: all assays above

Cn1cc(C(=O)NCCc2ccc(-c3ccc(Cl)cc3)cc2)c(C(F)(F)F)n1 [Compound 2.157]
< 20%: all assays above

CC(Cc1c(Cl)cc(Cl)cc1Cl)NC(=O)c1cn(C)nc1C(F)F (racemic) [Compound 1.392]
< 20%: all assays above
